Experimental data: patent US20170107462A1, “ARRAY OF FABRIC TREATMENT PRODUCTS” (The Procter & Gamble Company, priority 2015, published 2017)

Test: Fragrance Fidelity Index (FFI), expert graders on fabric swatches
[1] = Conc 10 ppm test material on fabric swatch
[2] = Conc 50 ppm test material on fabric swatch

SMILES	FFI [1]	FFI [2]
O=C1CCC2CCCCC2O1 (stereo not drawn) [3,4,4a,5,6,7,8,8a-octahydrochromen-2-one]	0	0
CC(C)(C)C1CCCCC1 [4-tert-butyl cyclohexane]	0	0.3
CCCCCCCCCCCCO [Material 174]		0.5
CC(=O)OCCCCCCC(C)C [Material 204]	0	0
CC1(C)CCc2ccc(CCC=O)cc21 [Material 261]	0	1.3
CC(=O)OC1CC2CC1C1CC=CC21 (stereo not drawn) [Material 281]	0	0.5
CCCCCCCCCCCC(=O)OCC [Material 391]		0.3
C=CC(C)=CCC=C(C)C [Material 524]		0
CCC(O)COC1CCCCC1C(C)(C)C (stereo not drawn) [Material 677]	0	1.8
CC(CCO)CCc1ccccc1 (stereo not drawn) [Material 962]	0	0.5
CCOC(=O)OC1C(C)CCC(C)C1C (stereo not drawn) [Material 1005]		0.5
COC(=O)OC1CC/C=C\CCC1 (stereo not drawn) [Material 1139]	0	1.0
C=C1CCC2OC2(C)CCC2C1CC2(C)C (stereo not drawn) [Material 1148]		0.5
CC1(C)C2CCC3(C2)C1C(=O)CCC3(C)C (stereo not drawn) [Material 1149]	0	0.8
CCCCCCCCCCCO [Undecanol]		0.8
